Results are given in words; binding and its absence hold for the method and conditions named. Some binding calls cover weakened binding; strength is not graded here.
Molecular target: His-tagged recombinant TgDIP13 (Toxoplasma gondii SSNA1/DIP13 homologue) (Toxoplasma gondii)
Test: negative-stain transmission electron microscopy; purified recombinant TgDIP13 at 10 mg/ml in 6 M urea buffer, diluted 1:10 in 30 mM MOPS pH 7.0 or 0.1 M acetate buffer pH 3.5, incubated 24 hours at 37 °C, diluted to 0.1 mg/ml, stained with 1% uranyl acetate; self-assembly seemed favored at neutral over acidic pH; both purified

B1: His-tagged recombinant TgDIP13 (Toxoplasma gondii SSNA1/DIP13 homologue) (natural protein, UniProt A0A125YRV3 1-150, looked up)
chain: MTSTTNSNLHNYNHELVACIDDLRRKREEVHRQIIKEEEDRAKVQKEIALLQERLQKLNDSITRKIQARNEYDKTILETEAAYTKILESAQTLLHVLKRESVHLGRKTSGDRAELPGIGITGVGVDYSPNSVSELSHRRAEKGKPTAGAG
notes: TgDIP13, the SSNA1/DIP13 homologue of Toxoplasma gondii (ToxoDB entry TGME49_295450); the TgDIP13 gene was amplified from T. gondii cDNA with primers ML2448/ML2449 and cloned NdeI/XhoI into pET24a+; Apparent mass of the monomer ~18 kDa; also called T. gondii SSNA1/DIP13 homologue; not shown: His6, C-terminal, kept
- binding: binds

— publication PMC4914967, “An evolutionarily conserved SSNA1/DIP13 homologue is a component of both basal and apical complexes of Toxoplasma gondii” (Scientific Reports, 2016)
